Reference: PubChem BioAssay AID540276 (National Center for Advancing Translational Sciences (NCATS), 2011)
Among all 300,000 compounds or so, about 5,400 (1.8%) were called active. Inconclusive means that the source gave no clear call. Such entries were picked first, then a sample of the others. The call rests on the fitted dose curve; tested in HEK293 cells. Potencies beside an inconclusive call are fits to weak or partial responses and may not hold up.
Potency means the concentration at half of the fitted maximal effect.

Assay: qHTS for inhibitors of binding or entry into cells for Marburg Virus
Settings: Marburg virus pseudotyped entry inhibition, cell reporter; series mostly up to 37.8 µM
For `Cc1cc(NC(=O)c2cccs2)ncc1NC(=O)C(C)(C)C`, the Potency was inconclusive: 10 µM [inhibitor, partial curve, poor fit].
With `Cc1cccc2cc(CN(CCN(C)C)C(=S)Nc3ccccc3)c(=O)[nH]c12` the Potency was inconclusive: 35.5 µM [inhibitor, single point].
With `Cc1cc(OCc2nc(-c3ccncc3)no2)cc(C)c1Cl` the Potency was inconclusive: 2.82 µM [inhibitor, partial curve, poor fit].
In the case of `N/C(=N\c1nc2ccccc2o1)NC(=O)/C=C/c1ccccc1`, the Potency is reported as inconclusive: 6.31 µM [inhibitor, partial curve, poor fit].
In the case of `CCOc1ccc(N(CC(=O)NCc2ccc(Cl)cc2)S(=O)(=O)c2ccccc2)cc1`, the Potency is reported as inconclusive: 2.24 µM [inhibitor, partial curve, poor fit].
In the case of `COc1cccc(Cn2c(=O)c3ccccc3n3nc(C)cc23)c1`, the Potency is reported as inconclusive: 0.562 µM [inhibitor, full curve, poor fit].
In the case of `O=C(Nc1ccc(N=Nc2ccccc2)cc1)c1cccc(Cl)c1`, the Potency is reported as “inactive”.
With `CCOC(=O)C1=C(N)OC2=C(C(=O)CC(C)(C)C2)C1c1ccco1` (stereo unspecified) the Potency was “inactive”.
For `COc1ccc(NC(C)C(=O)N2CCN(Cc3ccccc3)CC2)cc1` (stereo unspecified), the Potency was inconclusive: 6.31 µM [inhibitor, full curve, poor fit].
With `CC(NC(=O)c1ccccc1F)c1nnc(SCC(=O)N2CCN(c3ccccc3)CC2)n1C` (stereo unspecified) the Potency was “inactive”.
With `O=C(CSc1nnc(SCc2ccc(Cl)cc2)s1)N/N=C/c1ccc(C(=O)O)cc1` the Potency was “inactive”.
With `Cc1cc(Br)cc(C)c1OCCCCN(C)C` the Potency was inconclusive: 29.1 µM [inhibitor, single point].
With `COc1ccc(C2c3c(ncn(CCN4CCOCC4)c3=N)Oc3ccc4ccccc4c32)cc1OC` (stereo unspecified) the Potency was active: 10.3 µM.
For `Cc1cc(C)c2c(N=NN3CCCCC3)[nH]nc2n1`, the Potency was inconclusive: 29.1 µM [activator, single point].
With `Cc1ccc(C(=O)OC(C)CN2C(C)CCCC2C)cc1` (stereo unspecified) the Potency was inconclusive: 10 µM [inhibitor, partial curve, poor fit].
With `COc1ccc(N2CCSC2C(=O)NN)cc1` (stereo unspecified) the Potency was “inactive”.
In the case of `O=C(NCCC1=CCCCC1)c1ccc2c(c1)N(Cc1ccccc1)C(=O)CS2`, the Potency is reported as inconclusive: 18.3 µM [inhibitor, single point].
With `COc1ccc(CC(=O)n2nc(-c3ccc(Cl)cc3)nc2NCc2ccco2)cc1` the Potency was inconclusive: 18.3 µM [inhibitor, single point].
In the case of `O=C(Nc1ccccc1Br)c1ccccc1-c1ccccc1`, the Potency is reported as inconclusive: 3.16 µM [inhibitor, partial curve, poor fit].
For `COc1ccc(CCN(Cc2nc3ccccc3c(=O)[nH]2)C(=O)C2CC2)cc1`, the Potency was inconclusive: 11.2 µM [inhibitor, single point].
In the case of `Cc1[nH]c2ccc(F)cc2c1CCN(Cc1cccnc1)C(=S)Nc1cccc(F)c1`, the Potency is reported as inconclusive: 6.31 µM [inhibitor, single point].
With `COc1ccc(OC)c(NC(=O)c2cc3cc(C)ccc3n2C)c1` the Potency was “inactive”.
For `CCCN1CCN(c2ncnc3c2nnn3Cc2ccccc2)CC1`, the Potency was inconclusive: 8.91 µM [inhibitor, partial curve, poor fit].
In the case of `CC(C)C(c1nnnn1Cc1ccco1)N1CCN(c2nc3ccccc3s2)CC1` (stereo unspecified), the Potency is reported as “inactive”.
For `O=c1nc(-c2ccccc2)c(-c2ccccc2)n[nH]1`, the Potency was inconclusive: 35.5 µM [activator, single point].
With `CCN(CC(=O)N1CCN(Cc2ccccc2)CC1)S(=O)(=O)c1ccccc1` the Potency was “inactive”.
In the case of `CCS(=O)(=O)c1ncc(N(Cc2ccccc2)Cc2ccco2)c(C(=O)Nc2ccc(C)c(C)c2)n1`, the Potency is reported as inconclusive: 22.4 µM [inhibitor, partial curve, poor fit].
For `CCOC(=O)C1=C(Nc2ccc(Cl)cc2)OCC1=O`, the Potency was “inactive”.
For `CCc1nc(SCC(=O)Nc2cccc(C(F)(F)F)c2)c2c(=O)n(C)c(=O)n(C)c2n1`, the Potency was “inactive”.
For `COc1ccccc1C1c2[nH]c3ccccc3c2CCN1Cc1cnc(C)s1` (stereo unspecified), the Potency was “inactive”.
In the case of `C=CCn1c(CSc2nc3ccccc3s2)n[nH]c1=S`, the Potency is reported as inconclusive: 0.794 µM [inhibitor, single point].
With `O=c1oc(-c2ccc([N+](=O)[O-])cc2)nc2ccc(O)cc12` the Potency was “inactive”.
For `CC(=O)Nc1ccc(NC(=O)c2ccc(-n3c(C)ccc3C)cc2)cc1`, the Potency was inconclusive: 35.5 µM [inhibitor, single point].
In the case of `O=C(NC1CCCCCC1)c1ccc(Br)o1`, the Potency is reported as inconclusive: 14.1 µM [activator, partial curve, poor fit].
In the case of `CCCN(Cc1ccccc1)C(=S)Nc1ccc(C(C)=O)cc1`, the Potency is reported as inconclusive: 35.5 µM [inhibitor, single point].
For `COc1ccc(/C=C/C(=O)c2c(O)n(CCC3=CCCCC3)c(=O)[nH]c2=O)cc1`, the Potency was inconclusive: 35.5 µM [inhibitor, single point].
With `N/C(=N\OC(=O)C1CCCCC1)c1cccc(Br)c1` the Potency was inconclusive: 31.6 µM [activator, single point].
In the case of `CCOc1ccc(C(=O)Nc2c(C(=O)c3ccc(OC)cc3)oc3ccccc23)cc1`, the Potency is reported as “inactive”.
In the case of `COc1cccc(C(=O)Nc2ccc(N3CCN(Cc4ccccc4)CC3)cc2)c1`, the Potency is reported as inconclusive: 20 µM [inhibitor, partial curve, poor fit].
With `O=c1c2ccccc2nnn1CSc1nc2ccccc2c(=O)n1CCCO` the Potency was inconclusive: 35.5 µM [inhibitor, single point].
In the case of `O=C1OCC2=C1C(c1ccc(Cl)cc1)c1cc3c(cc1O2)OCO3` (stereo unspecified), the Potency is reported as inconclusive: 10 µM [inhibitor, partial curve, poor fit].
With `Cc1ccc(OCc2cc(C(=O)NCC3COCCO3)no2)cc1C` (stereo unspecified) the Potency was “inactive”.
For `Cc1ccc(NC2(C#N)CCCC2)cc1`, the Potency was “inactive”.
With `C#CC(=O)N(c1cccc(OC)c1)C(C(=O)NC1CCCC1)c1cccs1` (stereo unspecified) the Potency was active: 2.91 µM.
For `Cc1nc2ccc(NC(=O)N3CCSCC3)cc2s1`, the Potency was “inactive”.
For `Cc1nn(CC(=O)Nc2ccccc2C(F)(F)F)c(=O)c2cccn12`, the Potency was inconclusive: 11.2 µM [inhibitor, partial curve, poor fit].
